# Out of some 360,000 compounds screened, about 10,000 (2.8%) were called active. Inconclusive means that the source gave no clear call. Such entries were picked first, then a sample of the others. The call rests on the fitted dose curve; in most records, active means well fitted inhibition curve with a large enough effect; inconclusive means small, poorly fitted or top-dose-only effect; inactive means flat fitted curve, though single readings scatter. Potencies of inconclusive entries are doubtful fits and often do not repeat.
# Chains of the proteins cited; added tags and fusions are not shown.
# UniProt P53350, whole entry, looked up: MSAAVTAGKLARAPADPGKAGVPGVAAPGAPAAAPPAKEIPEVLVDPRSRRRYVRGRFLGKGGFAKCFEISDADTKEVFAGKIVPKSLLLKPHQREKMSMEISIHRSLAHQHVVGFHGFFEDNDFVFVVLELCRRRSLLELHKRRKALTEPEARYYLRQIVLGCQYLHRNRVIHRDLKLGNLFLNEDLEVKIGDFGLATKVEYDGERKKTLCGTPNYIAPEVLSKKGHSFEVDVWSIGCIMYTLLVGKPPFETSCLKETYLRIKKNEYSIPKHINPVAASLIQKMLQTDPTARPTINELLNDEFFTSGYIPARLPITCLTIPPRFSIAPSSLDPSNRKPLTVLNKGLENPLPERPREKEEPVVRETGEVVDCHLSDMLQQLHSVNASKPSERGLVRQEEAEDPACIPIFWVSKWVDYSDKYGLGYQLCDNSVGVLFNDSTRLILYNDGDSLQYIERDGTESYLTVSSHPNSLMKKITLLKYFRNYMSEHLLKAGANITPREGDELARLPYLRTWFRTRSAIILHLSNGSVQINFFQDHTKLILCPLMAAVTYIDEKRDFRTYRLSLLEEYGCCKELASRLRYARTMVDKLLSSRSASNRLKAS
# Target: Serine/threonine-protein kinase PLK1 (Homo sapiens) (UniProt P53350)
# Experiment: qHTS for Inhibitors of PLK1-PDB (polo-like kinase 1 - polo-box domain): Primary Screen; further: nearly all actives have a fitted effect of over 65% in size; on max response, negative = inhibition: series mostly up to about 57 µM
# Settings: Plk1 PBD binding of FITC phosphopeptide, fluorescence polarization
# On the % scale 0 is the no-effect control and ±100 the full control effect; potency means the concentration at half of the fitted maximal effect.
SMILES,Potency,"max response, negative = inhibition"
CC(C)CC(=O)N1CCN(S(=O)(=O)c2ccc(Cl)cc2)CC1,"inconclusive: 18.9 µM [inhibitor, partial curve]",
CCOC(=O)CCSc1nnc(-c2cccnc2)n1-c1ccccc1OC,,inactive: -4.08%
N#CCOC(=O)[C@H](Cc1c[nH]c2ccccc12)NS(=O)(=O)c1ccc(Cl)cc1,"inconclusive: 13.4 µM [inhibitor, partial curve]",
COc1ccccc1NS(=O)(=O)c1cc(NC(=O)Cc2n[nH]c(=O)c3ccccc23)ccc1Cl,,inactive: 0.0674%
CN1C(=O)/C(=C2\SC(=S)N(C(CCC(=O)O)C(=O)O)C2=O)c2ccccc21 (centres undefined),"inconclusive: 26.7 µM [inhibitor, single point]",
Cc1ccc(-c2nc(Nc3cccc(C)c3)sc2CC(=O)O)cc1,"inconclusive: 21.2 µM [inhibitor, partial curve]",
COc1cccc2c(=S)c(CCC(C)=O)c(C)[nH]c12,"inconclusive: 7.52 µM [inhibitor, partial curve]",
CCOC(=O)c1c[nH]c2c(C)ccc(Cl)c2c1=O,active: 18.9 µM,
OCCCn1c(C2CCCN2c2nc(-c3ccc(Cl)cc3)cs2)nc2cc(Cl)c(Cl)cc21 (centres undefined),"inconclusive: 23.8 µM [inhibitor, single point]",
Cc1cc(NS(=O)(=O)c2ccccc2)cc(Cl)c1O,,inactive: -9.84%
CC(C)(C)C1CCc2c(C(=O)NNC(=O)CCCC(=O)O)csc2C1 (centres undefined),,inactive: -9.54%
CC(=O)Nc1ccc(S(=O)(=O)N2CCC(c3nc4c(nnn4Cc4ccccc4Cl)c(=O)[nH]3)CC2)cc1,,inactive: -3.89%
O=C1CCC(=O)N1c1nc2nc(-c3ccccc3)cc(-c3ccccc3)n2n1,"inconclusive: 26.7 µM [inhibitor, partial curve]",
CCCCc1nnc(NC(=O)CCSc2ccccc2)s1,"inconclusive: 29.9 µM [inhibitor, single point]",
COc1ccc(N2CCN(CC(O)COc3ccc(F)cc3)CC2)cc1 (centres undefined),,inactive: -4.13%
Cc1c(Cc2c(C)n(C)n(-c3ccccc3)c2=O)c(=O)n(-c2ccccc2)n1C,,inactive: -8.41%
O=c1/c(=C/c2ccco2)sc2nc(-c3ccccc3Br)nn12,"inconclusive: 18.9 µM [inhibitor, partial curve]",
Cc1nn(-c2nnc(C)c(=O)[nH]2)c(C)c1SCC(=O)Nc1ccc(F)cc1,"inconclusive: 26.7 µM [inhibitor, single point]",
Cc1cccc(C(=O)NNC(=O)C2CCN(C(=O)OC(C)(C)C)CC2)c1,,inactive: -3.15%

# An excerpt of these results, as tab-separated lines.
SMILES	Potency	max response, negative = inhibition
CC(=O)Nc1ccc(S(=O)(=O)N2CCC(c3nc4c(nnn4Cc4ccccc4Cl)c(=O)[nH]3)CC2)cc1		inactive: -3.89%
O=C1CCC(=O)N1c1nc2nc(-c3ccccc3)cc(-c3ccccc3)n2n1	inconclusive: 26.7 µM [inhibitor, partial curve]	
